Source: PMC5111583
These are yes or no findings as the source states them, for the method shown. In cells and extracts the contact can be indirect. Some results given as binding are weak or reduced against the parent protein; the word gives no strength.

Amino acid sequences for entries named in this document (tags omitted). A change or cut given only in a name is not applied to a line headed by its entry. Chains listed by the source or under a name are the forms on record and can include a tag or linker. Residues count along the entry.
UniProt Q71RC2: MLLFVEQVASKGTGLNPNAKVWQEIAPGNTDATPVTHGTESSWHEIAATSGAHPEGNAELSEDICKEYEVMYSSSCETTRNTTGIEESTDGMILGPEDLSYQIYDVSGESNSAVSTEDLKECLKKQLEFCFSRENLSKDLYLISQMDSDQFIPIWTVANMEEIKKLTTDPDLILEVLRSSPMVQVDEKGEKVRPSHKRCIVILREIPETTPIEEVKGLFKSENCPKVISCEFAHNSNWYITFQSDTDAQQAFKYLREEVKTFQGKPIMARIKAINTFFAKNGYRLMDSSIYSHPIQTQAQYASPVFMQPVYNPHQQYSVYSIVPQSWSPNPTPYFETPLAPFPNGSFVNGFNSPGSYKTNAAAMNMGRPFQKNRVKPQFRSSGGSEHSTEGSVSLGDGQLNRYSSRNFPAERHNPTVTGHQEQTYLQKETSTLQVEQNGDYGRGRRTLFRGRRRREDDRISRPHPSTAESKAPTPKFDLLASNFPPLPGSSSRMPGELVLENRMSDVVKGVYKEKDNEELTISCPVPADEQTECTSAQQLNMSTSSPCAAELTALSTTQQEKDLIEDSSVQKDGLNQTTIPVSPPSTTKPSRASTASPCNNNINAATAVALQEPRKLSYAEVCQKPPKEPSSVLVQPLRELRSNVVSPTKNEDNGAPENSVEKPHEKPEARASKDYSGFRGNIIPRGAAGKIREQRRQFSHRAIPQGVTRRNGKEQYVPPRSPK
LARP4-S388* truncation mutant (FLAG-tagged): residues 1-387 of Q71RC2
UniProt P11940: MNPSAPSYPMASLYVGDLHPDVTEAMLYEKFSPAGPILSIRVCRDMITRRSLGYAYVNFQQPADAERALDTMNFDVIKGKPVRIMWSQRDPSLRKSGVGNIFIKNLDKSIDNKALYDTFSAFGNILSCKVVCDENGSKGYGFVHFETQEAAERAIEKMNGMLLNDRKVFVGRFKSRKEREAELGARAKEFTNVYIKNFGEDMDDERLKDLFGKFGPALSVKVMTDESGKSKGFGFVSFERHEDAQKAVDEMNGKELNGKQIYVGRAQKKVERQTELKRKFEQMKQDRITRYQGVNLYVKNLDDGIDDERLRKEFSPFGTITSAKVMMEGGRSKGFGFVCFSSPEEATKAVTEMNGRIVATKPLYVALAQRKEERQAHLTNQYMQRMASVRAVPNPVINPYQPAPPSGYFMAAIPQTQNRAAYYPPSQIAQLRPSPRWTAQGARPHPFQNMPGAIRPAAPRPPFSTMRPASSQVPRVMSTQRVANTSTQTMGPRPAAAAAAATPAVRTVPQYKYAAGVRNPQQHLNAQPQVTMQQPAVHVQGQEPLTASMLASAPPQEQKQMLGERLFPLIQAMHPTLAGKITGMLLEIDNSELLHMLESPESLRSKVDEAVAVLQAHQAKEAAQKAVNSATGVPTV

How the values were obtained:
Test in all cases: co-IP; HEK293T lysates 24 h after transfection; anti-FLAG antibody-conjugated agarose beads, 2 h at 4 °C; 20 mM Tris-HCl pH 8.0, 130 mM NaCl, 1% Triton X-100, 1 mM DTT; immunoblot for PABP1
[1] = biological target: LARP4-R406I (FLAG-tagged) (human) (UniProt Q71RC2)
[2] = biological target: LARP4-M542R (FLAG-tagged) (human) (UniProt Q71RC2)
[3] = biological target: LARP4-I460M (FLAG-tagged) (human) (UniProt Q71RC2)
[4] = biological target: LARP4-G489V (FLAG-tagged) (human) (UniProt Q71RC2)
[5] = biological target: LARP4-S388* truncation mutant (FLAG-tagged) (human) (UniProt Q71RC2)
[6] = biological target: wild-type FLAG-epitope tagged LARP4 (human) (UniProt Q71RC2)
[7] = biological target: LARP4-S470L (FLAG-tagged) (human) (UniProt Q71RC2)

Measured: binding

poly(A)-binding protein (PABP1) (from UniProt P11940 1-636)
binds: all assays above
